The subject of this assay is L1210 leukemia ip in BDF1 mice, survival T/C. As to the kind of experiment: NCI In Vivo Anticancer Drug Screen. Data for tumor model L1210 Leukemia (intraperitoneal) in B6D2F1 (BDF1) mice. Conditions: T/C endpoint: mean survival time, higher T/C = longer survival.
The mark [1] stands for this setting: dose: 100.0 mg/kg/injection, schedule: Q01DX009 (ip), vehicle: saline.
The mark [2] stands for this setting: dose: 200.0 mg/kg/injection, schedule: Q01DX009 (ip), vehicle: saline.
Setting [3] is: dose: 400.0 mg/kg/injection, schedule: Q01DX009 (ip), vehicle: saline.
Setting [4] is: dose: 200.0 mg/kg/injection, schedule: Q01DX009 (ip), vehicle: saline with Tween-80.
The mark [5] stands for this setting: dose: 50.0 mg/kg/injection, schedule: Q01DX009 (ip), vehicle: saline with Tween-80.
[6] abbreviates: dose: 200.0 mg/kg/injection, schedule: Q04DX002 (ip), vehicle: Klucel (hydroxypropylcellulose) (HPC).
Where [7] appears, read: dose: 400.0 mg/kg/injection, schedule: Q04DX002 (ip), vehicle: Klucel (hydroxypropylcellulose) (HPC).
Where [8] appears, read: dose: 100.0 mg/kg/injection, schedule: Q04DX003 (ip), vehicle: saline.
Setting [9] is: dose: 200.0 mg/kg/injection, schedule: Q04DX003 (ip), vehicle: saline.
Setting [10] is: dose: 400.0 mg/kg/injection, schedule: Q04DX003 (ip), vehicle: saline.
Where [11] appears, read: dose: 100.0 mg/kg/injection, schedule: Q01DX009 (ip), vehicle: saline with Tween-80.

Molecules are shown by their SMILES. The list is a part of this screen's results and no random one: it gathers tests that were run many times, whatever their T/C, doses with no T/C, and many T/C values between a quarter and a half above the control. Further doses and runs are listed elsewhere. T/C is the treated group as % of the vehicle group. Some entries give survivors of the animals treated and no T/C: the source holds a T/C of zero for them, seemingly a mark for toxic or unscored doses. Some doses without a T/C left all or most animals alive at the check, yet need not have been tolerated: the source hardly ever lists a survival T/C far under the control, and the zero likely stands for such cases as well. Survivors were counted at the toxicity check, usually on the fifth day, unless a day is given; later deaths do not show. Schedules are NCI's codes, taken here to give the interval after Q, in days (D) or hours (H), and the number of doses after X. Where survival is the endpoint, the PubChem record calls one and a half times the control and up active, and a quarter to a half above the control has no call in these data; cut-offs in other NCI protocols can differ. Some T/C values carry the count of animals alive at the toxicity check (mostly the fifth day); without a count, all were alive then.

On to `O=C(O)CCN(Cl)Cl`, for which the survivor count (dose: 12.5 mg/kg/injection, schedule: Q01DX009 (ip), vehicle: saline) is 1 of 6; the survivor count (dose: 25.0 mg/kg/injection, schedule: Q01DX009 (ip), vehicle: saline) is 0 of 6; the survivor count (dose: 50.0 mg/kg/injection, schedule: Q01DX009 (ip), vehicle: saline) is reported as 0 of 6; the survivor count under setting [1] was 0 of 6; the survivor count under setting [2] is 0 of 6; the survivor count under setting [3] is 0 of 6.
`O=C(Nc1ccccc1)OC1CCC2CC21` (stereo unspecified): the survivor count under setting [4] is 3 of 3.
For `O=C(CNC(=O)c1ccc(Cl)cc1Cl)N/N=C/c1ccc(Cl)c(Cl)c1`, the survivor count is, setting by setting: (dose: 12.5 mg/kg/injection, schedule: Q01DX009 (ip), vehicle: saline with Tween-80) 3 of 3; under setting [5], 3 of 3; under setting [4], 1 of 3.
On to `CC(C)(O)CNC(=O)c1cccc([N+](=O)[O-])c1`, for which the survivor count (dose: 400.0 mg/kg/injection, schedule: Q04DX003 (ip), vehicle: Klucel (hydroxypropylcellulose) (HPC)) is reported as 6 of 6.
Turning to `C=CS(=O)(=O)c1ccc(C)cc1`, the survivor count is reported as 0 of 3 under setting [6] and 0 of 3 under setting [7].
For `CCC(=O)c1ccc(N2CCCCC2)cc1`, under setting [7], the survivor count is reported as 2 of 3.
On to `COC1OC2COc3ccccc3OC2C2C1N2C(=N)N[N+](=O)[O-]` (stereo unspecified), for which the T/C (dose: 80.0 mg/kg/injection, schedule: Q04DX002 (ip), vehicle: saline) was 125 % of control.
With `C=CCN(C#N)CC=C`, the survivor count is listed as 0 of 6 under setting [1]; 0 of 6 under setting [8]; 0 of 6 under setting [2]; 0 of 6 under setting [9]; 0 of 6 under setting [3]; 0 of 6 under setting [10].
Consider `O=C1C(=O)c2ccccc2C(O)=C1CC=C1CCCC1`, for which the survivor count is, setting by setting: (dose: 400.0 mg/kg/injection, schedule: Q01DX001 (ip), vehicle: water) 3 of 6; (dose: 400.0 mg/kg/injection, schedule: Q01DX009 (ip), vehicle: water) 0 of 6.
On to `Cn1cnnc1[N+](=O)[O-]`, for which the survivor count (dose: 200.0 mg/kg/injection, schedule: Q04DX003 (ip), vehicle: saline sonified) is 0 of 6 and the survivor count (dose: 400.0 mg/kg/injection, schedule: Q04DX003 (ip), vehicle: saline sonified) is on record as 0 of 6.
Consider `C=[CH][Sn]([CH]=C)([CH]=C)[O]C(C)=O`, for which the survivor count is listed as 0 of 6 (dose: 25.0 mg/kg/injection, schedule: Q01DX009 (ip), vehicle: Klucel (hydroxypropylcellulose) (HPC)); 0 of 3 (dose: 50.0 mg/kg/injection, schedule: Q04DX002 (ip), vehicle: Klucel (hydroxypropylcellulose) (HPC)); 1 of 3 (dose: 100.0 mg/kg/injection, schedule: Q04DX002 (ip), vehicle: Klucel (hydroxypropylcellulose) (HPC)); 1 of 3 under setting [6]; 0 of 3 under setting [7].
Consider `CN(C)N=Nc1ccccc1C(N)=O`, for which the T/C reads like this: (dose: 62.5 mg/kg/injection, schedule: Q01DX009 (ip), vehicle: saline with Tween-80) 135 % of control; (dose: 100.0 mg/kg/injection, schedule: Q01DX009 (ip), vehicle: other) 137 % of control; (dose: 225.0 mg/kg/injection, schedule: Q01DX009 (ip), vehicle: other) 139 % of control; (dose: 225.0 mg/kg/injection, schedule: Q01DX009 (ip), vehicle: saline with Tween-80) 128 % of control; (dose: 250.0 mg/kg/injection, schedule: Q01DX001 (ip), vehicle: saline with Tween-80) 144 % of control [8 of 10 alive]; (dose: 300.0 mg/kg/injection, schedule: Q01DX001 (ip), vehicle: saline with Tween-80) 125 % of control. Moreover, the survivor count is 7 of 10 (dose: 250.0 mg/kg/injection, schedule: Q01DX009 (ip), vehicle: saline with Tween-80); 0 of 10 (dose: 500.0 mg/kg/injection, schedule: Q01DX001 (ip), vehicle: saline with Tween-80); 1 of 10 (dose: 600.0 mg/kg/injection, schedule: Q01DX001 (ip), vehicle: saline with Tween-80).
As for `Cc1ccccc1NC(=O)CI`, the survivor count is, setting by setting: (dose: 75.0 mg/kg/injection, schedule: Q01DX009 (ip), vehicle: Klucel (hydroxypropylcellulose) (HPC)) 0 of 6; (dose: 150.0 mg/kg/injection, schedule: Q01DX009 (ip), vehicle: Klucel (hydroxypropylcellulose) (HPC)) 0 of 6; (dose: 300.0 mg/kg/injection, schedule: Q01DX009 (ip), vehicle: Klucel (hydroxypropylcellulose) (HPC)) 0 of 6.
As for `O=[N+]([O-])/C=C/c1cccs1`, the survivor count (dose: 400.0 mg/kg/injection, schedule: Q01DX001 (ip), vehicle: Klucel (hydroxypropylcellulose) (HPC)) is 0 of 6.
Turning to `Cc1nc2ccccc2c(C)c1-c1c(C)nc2ccccc2c1C`, the survivor count reads like this: under setting [8], 6 of 6; under setting [9], 6 of 6; under setting [10], 6 of 6.
`CCOC(=O)C1=C(C)NC(C)=C(C(=O)OCC)C1c1ccccc1[N+](=O)[O-]`: the survivor count is given as 2 of 6 under setting [5]; 0 of 6 under setting [11]; 0 of 6 (dose: 200.0 mg/kg/injection, schedule: Q04DX003 (ip), vehicle: saline with Tween-80); 1 of 6 (dose: 400.0 mg/kg/injection, schedule: Q04DX003 (ip), vehicle: saline with Tween-80).
Turning to `CCCOCCC(c1ccccc1)(c1ccccc1)c1ccccc1`, the survivor count was 3 of 3 under setting [5] and 3 of 3 under setting [11].
With `O=[N+]([O-])c1cc([N+](=O)[O-])cc(S(=O)(=O)O)c1`, the survivor count under setting [2] is 1 of 6, the survivor count under setting [3] was 0 of 6 and the survivor count under setting [10] is 2 of 6.
As for `CCCCOP(=O)(OCCCC)N(C)c1ccccc1`, the survivor count was 1 of 3 (dose: 200.0 mg/kg/injection, schedule: Q04DX002 (ip), vehicle: saline with Tween-80) and 0 of 3 (dose: 400.0 mg/kg/injection, schedule: Q04DX002 (ip), vehicle: saline with Tween-80).
As for `CCCCCCCCCCCC1=C(O)C(=O)C(CC2=C(O)C(=O)C(CCCCCCCCCCC)=C(O)C2=O)=C(O)C1=O`, for the setting “dose: 100.0 mg/kg/injection, schedule: Q01DX001 (ip), vehicle: carboxymethylcellulose (CMC)”, the survivor count was 4 of 4.
Consider `COc1cccc(Cc2c[nH]c(=S)[nH]c2=O)c1`, for which, for the setting “dose: 400.0 mg/kg/injection, schedule: Q01DX009 (ip), vehicle: Klucel (hydroxypropylcellulose) (HPC)”, the survivor count was 1 of 6.
Turning to `CN=C(N)NCCCCCCCCNC(N)=NC`, the survivor count is, setting by setting: (dose: 40.0 mg/kg/injection, schedule: Q01DX001 (ip), vehicle: saline) 0 of 4; (dose: 50.0 mg/kg/injection, schedule: Q01DX001 (ip), vehicle: saline) 0 of 4; (dose: 80.0 mg/kg/injection, schedule: Q01DX001 (ip), vehicle: saline) 0 of 4; (dose: 100.0 mg/kg/injection, schedule: Q01DX001 (ip), vehicle: saline) 0 of 4; (dose: 200.0 mg/kg/injection, schedule: Q01DX001 (ip), vehicle: saline) 0 of 4; (dose: 400.0 mg/kg/injection, schedule: Q01DX001 (ip), vehicle: saline) 0 of 4.
As to `O=C1CCC(N2C(=O)C3C(C2=O)C2(Cl)C(Cl)=C(Cl)C3(Cl)C2(Cl)Cl)C(=O)N1` (stereo unspecified), under setting [10], the survivor count is 0 of 3.

The values are drawn from PubChem BioAssay AID248 (DTP/NCI, 2004).
